In paper doi:10.1101/2023.09.01.555973:
Read-outs that look alike come from different tables or passages of the source. These are yes or no findings as the source states them, for the method shown. Some binding calls cover weakened binding; strength is not graded here.

Chains of the proteins cited; added tags and fusions are not shown. Residues count along the entry.
UniProt P01591, residues 23-159: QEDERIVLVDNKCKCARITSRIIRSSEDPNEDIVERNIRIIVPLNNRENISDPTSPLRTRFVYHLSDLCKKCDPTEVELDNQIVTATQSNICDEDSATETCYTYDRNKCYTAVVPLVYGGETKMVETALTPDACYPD

What was measured:
[1] = target: human joining chain (J-chain) (human) (UniProt P01591); assay: non-reducing SDS-PAGE with Coomassie staining and Western blot
[2] = target: human joining chain (J-chain) (human) (UniProt P01591); assay: as above; remark: listed apart in the source

human joining chain (J-chain) (from UniProt P01591 23-159)
binding [1]: binds
binding [2]: binds
